Results: the M2OR odorant receptor database
The entries are a selection whose mix differs from that of the whole data set. Calls are pooled over several reports, among them a noisy single-well screen. The list shows a part of the results.

Legend:
Settings in all cases: stereoisomer not certain
[1] = biological target: T1, OR51I1 (Homo sapiens) (UniProt Q9H343)
T1 sequence (whole entry): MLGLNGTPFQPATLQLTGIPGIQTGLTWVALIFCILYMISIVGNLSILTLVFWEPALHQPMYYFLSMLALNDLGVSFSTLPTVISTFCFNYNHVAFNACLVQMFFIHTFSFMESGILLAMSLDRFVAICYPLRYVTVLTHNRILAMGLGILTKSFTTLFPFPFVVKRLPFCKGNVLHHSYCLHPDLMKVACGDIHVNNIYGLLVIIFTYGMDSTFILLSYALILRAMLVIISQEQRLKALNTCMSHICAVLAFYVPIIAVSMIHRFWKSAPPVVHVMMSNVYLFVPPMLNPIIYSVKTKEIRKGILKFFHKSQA
How it was run: (§1)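 Each entry records the cell line, G-protein, co-transfected protein and tags used. Methods varied with the source, often transient luciferase assays in mammalian cell lines. A receptor–molecule pair is called responsive (active) if the original authors judged its signal statistically different from baseline and non-responsive (inactive) otherwise.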

[2] = biological target: T2, OR51I2 (Homo sapiens) (UniProt Q9H344)
T2 sequence (whole entry): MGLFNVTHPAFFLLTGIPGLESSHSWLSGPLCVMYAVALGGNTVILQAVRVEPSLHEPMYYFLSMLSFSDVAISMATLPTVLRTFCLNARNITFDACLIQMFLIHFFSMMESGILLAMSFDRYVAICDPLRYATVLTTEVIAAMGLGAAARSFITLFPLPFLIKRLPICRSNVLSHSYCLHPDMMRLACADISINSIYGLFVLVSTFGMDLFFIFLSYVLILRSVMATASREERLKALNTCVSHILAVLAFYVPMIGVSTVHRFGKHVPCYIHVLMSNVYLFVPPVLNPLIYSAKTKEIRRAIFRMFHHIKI
How it was run: as §1

[3] = biological target: T3, OR51L1 (Homo sapiens) (UniProt Q8NGJ5)
T3 sequence (whole entry): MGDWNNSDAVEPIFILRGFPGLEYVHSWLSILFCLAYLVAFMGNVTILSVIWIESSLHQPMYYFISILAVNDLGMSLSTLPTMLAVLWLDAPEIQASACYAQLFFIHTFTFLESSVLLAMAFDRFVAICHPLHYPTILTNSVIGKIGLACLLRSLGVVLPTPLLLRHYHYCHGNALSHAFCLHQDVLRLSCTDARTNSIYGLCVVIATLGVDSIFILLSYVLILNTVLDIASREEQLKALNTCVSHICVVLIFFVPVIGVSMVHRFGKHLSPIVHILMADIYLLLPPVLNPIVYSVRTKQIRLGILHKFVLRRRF
How it was run: as §1

[4] = biological target: T4, OR51S1 (Homo sapiens) (UniProt Q8NGJ8)
T4 sequence (whole entry): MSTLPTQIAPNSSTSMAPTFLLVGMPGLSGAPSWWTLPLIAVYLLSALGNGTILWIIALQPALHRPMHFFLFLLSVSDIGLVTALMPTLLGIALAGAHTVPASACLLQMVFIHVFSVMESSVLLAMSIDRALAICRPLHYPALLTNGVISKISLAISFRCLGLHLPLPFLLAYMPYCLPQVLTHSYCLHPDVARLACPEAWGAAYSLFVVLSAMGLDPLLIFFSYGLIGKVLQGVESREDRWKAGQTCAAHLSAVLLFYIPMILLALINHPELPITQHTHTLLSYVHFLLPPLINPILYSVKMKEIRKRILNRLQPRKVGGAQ
How it was run: as §1

[5] = biological target: T5, OR52A4P (Homo sapiens) (UniProt A6NMU1)
T5 sequence (whole entry): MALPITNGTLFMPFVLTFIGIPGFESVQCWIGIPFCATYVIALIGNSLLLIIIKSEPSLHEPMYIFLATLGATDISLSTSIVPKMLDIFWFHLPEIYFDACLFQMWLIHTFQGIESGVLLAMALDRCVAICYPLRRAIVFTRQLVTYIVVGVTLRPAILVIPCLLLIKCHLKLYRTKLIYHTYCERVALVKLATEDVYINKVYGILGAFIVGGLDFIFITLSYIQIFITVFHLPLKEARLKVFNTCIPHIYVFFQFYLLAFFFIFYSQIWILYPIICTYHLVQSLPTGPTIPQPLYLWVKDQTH
How it was run: as §1

[6] = biological target: T6, OR52A5 (Homo sapiens) (UniProt Q9H2C5)
T6 sequence (whole entry): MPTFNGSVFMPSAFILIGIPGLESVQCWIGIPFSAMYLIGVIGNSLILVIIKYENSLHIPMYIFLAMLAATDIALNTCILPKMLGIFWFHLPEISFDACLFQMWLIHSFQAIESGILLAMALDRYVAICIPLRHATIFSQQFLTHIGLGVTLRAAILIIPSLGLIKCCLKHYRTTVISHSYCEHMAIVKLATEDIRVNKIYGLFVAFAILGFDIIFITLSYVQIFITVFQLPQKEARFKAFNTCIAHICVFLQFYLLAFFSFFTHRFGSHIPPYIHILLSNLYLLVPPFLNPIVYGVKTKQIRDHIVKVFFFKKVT
How it was run: as §1

[7] = biological target: T7, OR52B4 (Homo sapiens) (UniProt Q8NGK2)
T7 sequence (whole entry): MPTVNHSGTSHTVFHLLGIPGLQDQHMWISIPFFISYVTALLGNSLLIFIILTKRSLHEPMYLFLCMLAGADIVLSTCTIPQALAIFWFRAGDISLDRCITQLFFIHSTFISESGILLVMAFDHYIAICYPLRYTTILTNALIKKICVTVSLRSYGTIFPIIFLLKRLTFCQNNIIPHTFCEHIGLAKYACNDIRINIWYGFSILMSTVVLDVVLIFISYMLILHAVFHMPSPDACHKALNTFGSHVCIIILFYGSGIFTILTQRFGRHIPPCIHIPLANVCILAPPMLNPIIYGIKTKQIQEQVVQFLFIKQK
How it was run: as §1

[8] = biological target: T8, OR52D1 (Homo sapiens) (UniProt Q9H346)
T8 sequence (whole entry): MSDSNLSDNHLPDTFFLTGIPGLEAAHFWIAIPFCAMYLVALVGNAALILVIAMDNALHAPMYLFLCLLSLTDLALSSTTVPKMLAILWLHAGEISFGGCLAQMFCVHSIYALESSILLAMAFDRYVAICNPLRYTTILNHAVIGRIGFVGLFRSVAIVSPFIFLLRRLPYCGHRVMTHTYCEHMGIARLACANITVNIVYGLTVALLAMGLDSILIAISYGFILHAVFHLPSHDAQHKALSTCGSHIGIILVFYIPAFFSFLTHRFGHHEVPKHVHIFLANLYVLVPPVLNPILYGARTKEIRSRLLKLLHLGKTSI
How it was run: as §1

Measured: odorant receptor agonist call

C=CCc1ccc(OC(C)=O)c(OC)c1
active: [1] | [4] | [5] | [6]
inactive: all other assays above

CC1CCC(C(C)C)C(O)C1 (stereo unspecified)
active: [3] | [7]
inactive: all other assays above

CC=Cc1ccc(O)c(OC)c1
active: [4] | [5] | [6]
inactive: all other assays above

c1cnccn1
inactive: all assays above

C=CC(C)(O)CCC=C(C)C (stereo unspecified)
inactive: all assays above

CCC1(O)C2(C)CCC(C2)C1(C)C (stereo unspecified)
inactive: all assays above

CC(C)(C)c1ccc(CCC=O)cc1
active: [1]
inactive: all other assays above
